These are yes or no findings as the source states them, for the method shown. Some binding calls cover weakened binding; strength is not graded here.
Target: CD94-NKG2C complex expressed on Ba/F3 cells (human CD94, human NKG2C and human DAP12) (human) (UniProt Q13241+P26717+O43914)
Test: flow cytometry staining of Ba/F3 transfectants, PE-conjugated anti-human IgG1

By UniProt entry, the sequences of proteins in these tests, tags left out. Where a name states a change or a piece, a line headed by the entry shows the natural chain unless it says otherwise.
UniProt Q13241: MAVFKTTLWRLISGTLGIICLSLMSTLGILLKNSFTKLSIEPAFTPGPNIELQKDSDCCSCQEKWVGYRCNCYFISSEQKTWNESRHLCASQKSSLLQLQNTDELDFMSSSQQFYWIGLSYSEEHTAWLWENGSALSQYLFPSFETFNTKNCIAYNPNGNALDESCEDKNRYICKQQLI
UniProt P26717: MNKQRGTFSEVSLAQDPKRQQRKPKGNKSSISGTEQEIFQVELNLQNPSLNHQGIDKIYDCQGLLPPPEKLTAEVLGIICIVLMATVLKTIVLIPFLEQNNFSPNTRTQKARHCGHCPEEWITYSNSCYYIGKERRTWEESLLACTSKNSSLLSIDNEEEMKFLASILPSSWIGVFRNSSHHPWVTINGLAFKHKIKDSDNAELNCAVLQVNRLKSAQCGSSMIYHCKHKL
UniProt O43914: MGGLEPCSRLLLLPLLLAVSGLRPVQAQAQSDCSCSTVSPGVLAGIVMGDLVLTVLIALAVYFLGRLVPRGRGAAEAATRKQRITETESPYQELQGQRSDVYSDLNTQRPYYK

Row | binding | Binder
1 | binds | JLS002-rAB22 IgG (antibody, V domains shown, also called rab22 JIS002 rab 22) VH: EVQLVESGGGLVQPGGSLRLSCAASGFNVYSSSIHWVRQAPGKGLEWVAYISSYSGYTYYADSVKGRFTISADTSKNTAYLQMNSLRAEDTAVYYCARGRYQGMDYWGQGTLVTVSS VL: DIQMTQSPSSLSASVGDRVTITCRASQSVSSAVAWYQQKPGKAPKLLIYSASSLYSGVPSRFSGSRSGTDFTLTISSLQPEDFATYYCQQYAYHLITFGQGTKVEIK
2 | binds | JLS002-rAB23 IgG (antibody, V domains shown, also called JSI002 rab 23) VH: EVQLVESGGGLVQPGGSLRLSCAASGFNVYSSSIHWVRQAPGKGLEWVASISSYSGSTSYADSVKGRFTISADTSKNTAYLQMNSLRAEDTAVYYCARYGYYMSGAMDYWGQGTLVTVSS VL: DIQMTQSPSSLSASVGDRVTITCRASQSVSSAVAWYQQKPGKAPKLLIYSASSLYSGVPSRFSGSRSGTDFTLTISSLQPEDFATYYCQQKKAYSLITFGQGTKVEIK
